PubChem BioAssay AID1259308, NCATS, 2017

Screen: 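Genes whose loss raises luciferase production in HEK293 cells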 (primary screen)
Cell system: human HEK293 embryonic kidney cells stably expressing firefly luciferase (HEK-CMV-Luc2-Hygro)
Reagents: single siRNA against human genes, 0.8 pmol siRNA per well
Time to read-out: 72 h
Measured: 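Luciferase light (ONE-Glo) measured on one replicate plate set and viability (CellTiter-Glo) on the other, scaled to a negative control siRNA, with robust z-scores and luciferase per cell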
Scale: total luciferase, z-score and total luciferase, % of control: higher = more reporter protein produced
Rule for the call: 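An siRNA counts as active if its total luciferase robust z-score exceeds 3; genes with two or more such siRNAs out of three were retested with fresh siRNAs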
Meaning of the calls: active = raised luciferase; inactive = no rise
Shown is an unselected part of about 59,000 reagents. Of all reagents, about 1,510 (2.6%) are marked active. 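Calls use total luciferase alone and ignore viability, so some active siRNAs may act by altering cell number.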 A number with no mark means an inactive call. The numbers tell different reagents against one gene apart. Further read-outs or replicates are left out here.

Knock-down of PWP1 (PWP1 homolog, endonuclein) #1 gave: total luciferase, z-score -0.804; total luciferase, % of control 65.9. Silencing of PWP1 (PWP1 homolog, endonuclein) #2 gave: total luciferase, z-score 0.214; total luciferase, % of control 86.1. Depletion of PWP1 (PWP1 homolog, endonuclein) #3 came out at: total luciferase, z-score 0.149; total luciferase, % of control 84.9. Knock-down of COX4I2 (cytochrome c oxidase subunit 4I2) #1 came out at: total luciferase, z-score 1.21; total luciferase, % of control 106. Depletion of COX4I2 (cytochrome c oxidase subunit 4I2) #2 came out at: total luciferase, z-score -0.168; total luciferase, % of control 78.6. COX4I2 (cytochrome c oxidase subunit 4I2) #3 showed total luciferase, z-score -0.82; total luciferase, % of control 65.6.

Against GABRA3 (gamma-aminobutyric acid type A receptor subunit alpha3) #1, the values are total luciferase, z-score 0.443; total luciferase, % of control 90.7. Knock-down of GABRA3 (gamma-aminobutyric acid type A receptor subunit alpha3) #2 came out at: total luciferase, z-score 2.26; total luciferase, % of control 127. Against GABRA3 (gamma-aminobutyric acid type A receptor subunit alpha3) #3 the deposit lists total luciferase, z-score -0.661; total luciferase, % of control 68.7. With knock-down of PPP6C (protein phosphatase 6 catalytic subunit) #1, the record shows total luciferase, z-score 1.3; total luciferase, % of control 108. For PPP6C (protein phosphatase 6 catalytic subunit) #2, the entry reads total luciferase, z-score 4.65 (active); total luciferase, % of control 174. Knock-down of PPP6C (protein phosphatase 6 catalytic subunit) #3 resulted in: total luciferase, z-score 1.99; total luciferase, % of control 121.

PTPN12 (protein tyrosine phosphatase non-receptor type 12) #1 showed total luciferase, z-score -0.478; total luciferase, % of control 72.4. Silencing of PTPN12 (protein tyrosine phosphatase non-receptor type 12) #2 gave: total luciferase, z-score -0.781; total luciferase, % of control 66.4. With knock-down of PTPN12 (protein tyrosine phosphatase non-receptor type 12) #3 the results were total luciferase, z-score 0.315; total luciferase, % of control 88.1. For ATP5PB (ATP synthase peripheral stalk-membrane subunit b) #1, the entry reads total luciferase, z-score 0.0948; total luciferase, % of control 83.8. Depletion of ATP5PB (ATP synthase peripheral stalk-membrane subunit b) #2 resulted in: total luciferase, z-score -0.215; total luciferase, % of control 77.6. Depletion of ATP5PB (ATP synthase peripheral stalk-membrane subunit b) #3 came out at: total luciferase, z-score 2.9; total luciferase, % of control 140.

Knock-down of TFF3 (trefoil factor 3) #1 gave: total luciferase, z-score -0.315; total luciferase, % of control 75.6. Knock-down of TFF3 (trefoil factor 3) #2 resulted in: total luciferase, z-score -0.522; total luciferase, % of control 71.5. For TFF3 (trefoil factor 3) #3 the deposit lists total luciferase, z-score 0.126; total luciferase, % of control 84.4. Against CSNK1E (casein kinase 1 epsilon) #1 the deposit lists total luciferase, z-score 2.19; total luciferase, % of control 125. Against CSNK1E (casein kinase 1 epsilon) #2, the values are total luciferase, z-score -0.468; total luciferase, % of control 72.6. With knock-down of CSNK1E (casein kinase 1 epsilon) #3, the record shows total luciferase, z-score -1.44; total luciferase, % of control 53.3.

Against PARG (poly(ADP-ribose) glycohydrolase) #1, the values are total luciferase, z-score -1.75; total luciferase, % of control 47.2. After knock-down of PARG (poly(ADP-ribose) glycohydrolase) #2, the record shows total luciferase, z-score 1.62; total luciferase, % of control 114. After knock-down of PARG (poly(ADP-ribose) glycohydrolase) #3 the results were total luciferase, z-score 0.341; total luciferase, % of control 88.7. Depletion of COPRS (coordinator of PRMT5 and differentiation stimulator) #1 came out at: total luciferase, z-score -0.0613; total luciferase, % of control 80.7. For COPRS (coordinator of PRMT5 and differentiation stimulator) #2, the entry reads total luciferase, z-score 0.308; total luciferase, % of control 88. Knock-down of COPRS (coordinator of PRMT5 and differentiation stimulator) #3 gave: total luciferase, z-score -1.95; total luciferase, % of control 43.1.

HES7 (hes family bHLH transcription factor 7) #1 scored total luciferase, z-score -0.636; total luciferase, % of control 69.2. HES7 (hes family bHLH transcription factor 7) #2 showed total luciferase, z-score -0.846; total luciferase, % of control 65.1. After knock-down of HES7 (hes family bHLH transcription factor 7) #3, the screen gave total luciferase, z-score 0.468; total luciferase, % of control 91.2.

Active calls, among the entries above:
PPP6C (protein phosphatase 6 catalytic subunit) #2 — total luciferase, z-score = 4.65 (active); total luciferase, % of control = 174
